From article PMC11370900
These are yes or no findings as the source states them, for the method shown. Binding seen in cells or lysates may run through a third protein. Some binding calls cover weakened binding; strength is not graded here.

By UniProt entry, the sequences of proteins in these tests, tags left out.
UniProt O95817: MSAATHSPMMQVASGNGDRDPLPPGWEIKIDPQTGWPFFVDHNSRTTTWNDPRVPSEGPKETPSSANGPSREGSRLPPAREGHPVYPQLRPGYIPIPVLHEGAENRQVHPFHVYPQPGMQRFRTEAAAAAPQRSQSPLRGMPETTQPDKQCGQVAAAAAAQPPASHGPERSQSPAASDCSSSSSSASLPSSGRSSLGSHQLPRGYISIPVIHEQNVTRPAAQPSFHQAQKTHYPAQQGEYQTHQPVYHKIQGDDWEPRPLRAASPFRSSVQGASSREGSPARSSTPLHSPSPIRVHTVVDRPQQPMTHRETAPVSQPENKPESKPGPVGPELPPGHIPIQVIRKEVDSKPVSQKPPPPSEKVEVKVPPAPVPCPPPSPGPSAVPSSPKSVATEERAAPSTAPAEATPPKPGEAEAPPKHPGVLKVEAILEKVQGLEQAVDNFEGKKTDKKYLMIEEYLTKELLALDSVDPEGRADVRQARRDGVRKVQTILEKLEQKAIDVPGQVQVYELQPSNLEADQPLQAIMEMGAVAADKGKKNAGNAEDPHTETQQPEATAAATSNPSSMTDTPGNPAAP

Biological target: T1, heat shock protein B8 (HSPB8) (human) (UniProt Q9UJY1)
T1 sequence: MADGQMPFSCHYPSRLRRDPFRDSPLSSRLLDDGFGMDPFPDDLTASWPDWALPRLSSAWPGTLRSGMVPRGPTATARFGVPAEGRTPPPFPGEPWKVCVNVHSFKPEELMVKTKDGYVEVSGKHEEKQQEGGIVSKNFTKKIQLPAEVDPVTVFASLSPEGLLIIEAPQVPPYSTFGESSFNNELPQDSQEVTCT
Test: co-IP; cells lysed in RIPA lysis buffer; antibody on Dynabeads Protein G mixed with the lysate overnight at 4°C; washed three times with lysis buffer; bound proteins detected by Western blotting

BCL2-associated athanogene 3 (BAG3) (from UniProt O95817 1-575)
binding: binds
